From paper PMC9381593 come the findings set out here.

The chains behind the UniProt entries cited, without tags or fusion partners.
UniProt O95983: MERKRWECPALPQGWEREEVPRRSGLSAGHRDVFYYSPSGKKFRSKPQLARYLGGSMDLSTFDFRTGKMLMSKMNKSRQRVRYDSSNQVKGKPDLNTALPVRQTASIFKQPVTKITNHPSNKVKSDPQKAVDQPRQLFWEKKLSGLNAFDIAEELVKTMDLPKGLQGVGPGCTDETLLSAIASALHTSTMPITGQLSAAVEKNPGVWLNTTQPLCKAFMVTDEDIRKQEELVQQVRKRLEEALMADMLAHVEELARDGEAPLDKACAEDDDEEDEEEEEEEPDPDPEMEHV
UniProt Q14839: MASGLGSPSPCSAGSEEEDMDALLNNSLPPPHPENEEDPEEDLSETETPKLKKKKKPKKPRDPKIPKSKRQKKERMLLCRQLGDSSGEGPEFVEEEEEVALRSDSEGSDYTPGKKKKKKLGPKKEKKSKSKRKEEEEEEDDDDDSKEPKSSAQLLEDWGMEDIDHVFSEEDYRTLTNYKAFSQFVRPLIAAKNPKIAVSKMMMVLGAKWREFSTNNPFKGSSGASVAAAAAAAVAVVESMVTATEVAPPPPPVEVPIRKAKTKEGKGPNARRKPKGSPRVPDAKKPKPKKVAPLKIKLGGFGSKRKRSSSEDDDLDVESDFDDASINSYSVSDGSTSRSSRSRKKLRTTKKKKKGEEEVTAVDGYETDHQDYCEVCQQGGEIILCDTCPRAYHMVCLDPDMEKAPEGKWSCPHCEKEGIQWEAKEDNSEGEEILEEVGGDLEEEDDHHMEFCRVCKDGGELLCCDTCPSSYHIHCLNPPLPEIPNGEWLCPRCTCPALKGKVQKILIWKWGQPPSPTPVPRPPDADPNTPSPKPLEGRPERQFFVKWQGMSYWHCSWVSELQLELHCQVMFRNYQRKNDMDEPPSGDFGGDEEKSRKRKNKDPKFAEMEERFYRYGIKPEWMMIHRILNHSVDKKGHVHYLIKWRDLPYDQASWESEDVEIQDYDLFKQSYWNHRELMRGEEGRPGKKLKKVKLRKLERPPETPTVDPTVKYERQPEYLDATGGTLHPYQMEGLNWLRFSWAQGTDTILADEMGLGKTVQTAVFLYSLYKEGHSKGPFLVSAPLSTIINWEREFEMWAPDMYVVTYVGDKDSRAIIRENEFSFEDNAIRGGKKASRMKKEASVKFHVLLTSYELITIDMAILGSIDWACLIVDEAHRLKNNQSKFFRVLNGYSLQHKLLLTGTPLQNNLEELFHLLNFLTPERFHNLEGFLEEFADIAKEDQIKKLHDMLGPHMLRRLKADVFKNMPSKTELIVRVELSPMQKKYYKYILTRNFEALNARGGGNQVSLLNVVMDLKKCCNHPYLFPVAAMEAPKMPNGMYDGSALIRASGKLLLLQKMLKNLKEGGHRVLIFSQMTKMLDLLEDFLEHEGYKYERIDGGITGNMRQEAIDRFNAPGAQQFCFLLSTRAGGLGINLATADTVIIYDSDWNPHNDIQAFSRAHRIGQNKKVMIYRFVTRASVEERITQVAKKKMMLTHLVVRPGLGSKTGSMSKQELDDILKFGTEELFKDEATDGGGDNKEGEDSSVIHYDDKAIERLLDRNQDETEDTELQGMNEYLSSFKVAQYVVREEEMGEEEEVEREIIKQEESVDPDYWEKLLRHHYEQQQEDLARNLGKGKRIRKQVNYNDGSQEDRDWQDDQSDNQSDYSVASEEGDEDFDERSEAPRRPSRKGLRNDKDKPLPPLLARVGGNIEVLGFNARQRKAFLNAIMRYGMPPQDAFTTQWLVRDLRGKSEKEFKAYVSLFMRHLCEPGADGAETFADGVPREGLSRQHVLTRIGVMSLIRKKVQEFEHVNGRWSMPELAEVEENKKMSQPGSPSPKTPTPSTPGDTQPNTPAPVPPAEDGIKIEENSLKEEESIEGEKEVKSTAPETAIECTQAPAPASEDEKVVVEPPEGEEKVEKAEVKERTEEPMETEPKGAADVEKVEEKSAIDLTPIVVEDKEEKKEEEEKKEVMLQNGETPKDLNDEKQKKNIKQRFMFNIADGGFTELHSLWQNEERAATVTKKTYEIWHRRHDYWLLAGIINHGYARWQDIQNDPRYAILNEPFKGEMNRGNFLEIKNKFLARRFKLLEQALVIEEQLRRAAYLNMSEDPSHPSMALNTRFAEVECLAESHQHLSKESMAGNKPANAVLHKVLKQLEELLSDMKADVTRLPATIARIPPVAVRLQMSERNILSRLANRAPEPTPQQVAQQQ
UniProt Q13547: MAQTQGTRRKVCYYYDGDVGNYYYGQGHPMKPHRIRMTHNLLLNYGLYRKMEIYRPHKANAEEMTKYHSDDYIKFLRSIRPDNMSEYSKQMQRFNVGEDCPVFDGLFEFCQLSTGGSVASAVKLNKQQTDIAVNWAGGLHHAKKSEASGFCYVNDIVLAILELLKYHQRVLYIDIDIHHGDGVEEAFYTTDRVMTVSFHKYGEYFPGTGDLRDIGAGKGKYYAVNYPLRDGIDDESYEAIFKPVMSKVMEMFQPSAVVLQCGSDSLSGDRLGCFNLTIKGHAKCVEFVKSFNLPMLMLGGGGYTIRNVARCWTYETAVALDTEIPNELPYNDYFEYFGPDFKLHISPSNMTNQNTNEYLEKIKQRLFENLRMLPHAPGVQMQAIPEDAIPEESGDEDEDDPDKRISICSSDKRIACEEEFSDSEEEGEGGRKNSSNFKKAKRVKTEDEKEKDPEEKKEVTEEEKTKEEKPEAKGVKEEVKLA

The target in this experiment is Methyl-CpG binding domain protein 3 (human (endogenous in Huh7)) (UniProt O95983). In words: co-IP; endogenous IP from Huh7 lysate with anti-MBD3 antibody or control IgG, overnight at 4 °C, protein A/G beads; M2 buffer (20 mM Tris-HCl pH 7.5, 250 mM NaCl, 3 mM EDTA, 3 mM EGTA, 0.5% NP-40); western blot.

These are yes or no findings as the source states them, for the method shown. Binding seen in cells or lysates may run through a third protein. Some entries that bind do so weakly or less than the wild type.

As to “chromodomain helicase DNA binding protein 4 (from UniProt Q14839 1-1912)”, the binding entry is given as “binds”. As to “Histone Deacetylases 1 (from UniProt Q13547 1-482) (enzyme)”, the binding entry is reported as “binds”.
